Source: patent US20180127505A1, “HUMANIZED ANTI-AXL ANTIBODIES AND THEIR CONJUGATES” (MEDIMMUNE LIMITED, priority 2015, published 2018)
Results are given in words; binding and its absence hold for the method and conditions named. Some binding calls cover weakened binding; strength is not graded here.

By UniProt entry, the sequences of proteins in these tests, tags left out. Where a name states a change or a piece, a line headed by the entry shows the natural chain unless it says otherwise.
UniProt P30530: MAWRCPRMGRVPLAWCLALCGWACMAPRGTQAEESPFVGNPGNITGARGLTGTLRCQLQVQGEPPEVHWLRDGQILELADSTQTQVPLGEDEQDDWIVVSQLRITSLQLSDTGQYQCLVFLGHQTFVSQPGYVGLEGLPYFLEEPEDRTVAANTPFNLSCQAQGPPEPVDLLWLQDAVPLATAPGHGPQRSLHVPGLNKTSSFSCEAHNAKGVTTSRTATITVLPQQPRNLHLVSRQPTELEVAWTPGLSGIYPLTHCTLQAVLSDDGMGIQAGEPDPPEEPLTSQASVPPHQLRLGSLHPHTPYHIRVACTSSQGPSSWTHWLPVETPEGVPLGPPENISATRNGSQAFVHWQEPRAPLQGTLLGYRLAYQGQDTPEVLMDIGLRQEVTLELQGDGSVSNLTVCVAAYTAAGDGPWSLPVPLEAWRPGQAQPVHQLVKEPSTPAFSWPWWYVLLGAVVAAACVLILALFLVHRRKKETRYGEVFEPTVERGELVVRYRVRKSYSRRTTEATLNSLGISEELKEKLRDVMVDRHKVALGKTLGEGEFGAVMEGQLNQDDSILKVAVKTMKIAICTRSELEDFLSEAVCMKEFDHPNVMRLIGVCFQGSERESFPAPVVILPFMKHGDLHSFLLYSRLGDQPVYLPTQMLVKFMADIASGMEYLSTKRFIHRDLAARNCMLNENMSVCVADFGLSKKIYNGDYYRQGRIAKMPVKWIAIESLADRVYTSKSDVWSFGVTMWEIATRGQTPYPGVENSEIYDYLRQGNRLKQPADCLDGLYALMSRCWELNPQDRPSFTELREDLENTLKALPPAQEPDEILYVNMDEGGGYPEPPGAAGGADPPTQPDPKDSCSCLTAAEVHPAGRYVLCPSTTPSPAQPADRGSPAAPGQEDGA

Columns and labels:
[1] = biological target: Human AXL-Strep-His (produced by Evitria AG in transiently transfected CHO cells) (human) (UniProt P30530); assay: human AXL ELISA after 60 hr at 40 C in PBS
[2] = biological target: Human AXL-Strep-His (produced by Evitria AG in transiently transfected CHO cells) (human) (UniProt P30530); assay: ELISA on coated Axl-Strep-His (Protocol 4)
[3] = biological target: Human AXL-Strep-His (produced by Evitria AG in transiently transfected CHO cells) (human) (UniProt P30530); assay: AXL-Strep-His binding ELISA; EC50 not given
[4] = biological target: Human AXL-Strep-His (produced by Evitria AG in transiently transfected CHO cells) (human) (UniProt P30530); assay: ELISA on plate-coated human AXL-Strep-His (Protocol 4), OD 450nm against Log10[IgG (µg/mL)] [A. Human Axl]
[5] = biological target: Human AXL-Strep-His (produced by Evitria AG in transiently transfected CHO cells) (human) (UniProt P30530); assay: human AXL ELISA (Protocol 4), antibody heated in sterile PBS at 40 °C for 60 hr, OD 450nm against Log10[IgG (µg/mL)]
[6] = biological target: Human AXL-Strep-His (produced by Evitria AG in transiently transfected CHO cells) (human) (UniProt P30530); assay: human AXL ELISA (Protocol 4), untreated antibody of the accelerated stability analysis, OD 450nm against Log10[IgG (µg/mL)]
[7] = biological target: Human AXL-Strep-His (produced by Evitria AG in transiently transfected CHO cells) (human) (UniProt P30530); assay: SPR, Axl-Strep-His antigen

Measured: binding

B1: Ab1, anti-AXL antibody comprising the murine 1H12 VH (SEQ ID NO. 1) and VL (SEQ ID NO. 4) and a constant region derived from one or more human antibodies (antibody, V domains shown)
VH: EVQLVESGGDLVKPGGSLKLSCAASGFTFSSYGMSWVRQTPDKRLEWVATISSGGSYTYYPDSVKGRFTISRDNAKNTLYLQMSSLKSEDTAMYYCARHPIYYTYDDTMDYWGQGTSVTVSS
VL: ENVLTQSPAIMAASPGEKVTMTCSASSSVSSGNFHWYQQKPGTSPKLWIYRTSNLASGVPARFSGSGSGTSYSLTISSMEAEDAATYYCQQWSGYPWTFGGGTKLEIK
notes: also called Abl; chimeric 1H12
not listed: [7]
binds: all other assays above

B2: Ab5, anti-AXL antibody comprising VH SEQ ID NO. 3 and VL SEQ ID NO. 7 and a constant region derived from one or more human antibodies (antibody, V domains shown)
VH: EVQLVESGGGLVQPGGSLRLSCAASGFTFSSYGMSWVRQAPGKGLEWVATISSGGSYTYYPDSVKGRFTISRDNAKNSLYLQMNSLRAEDTAVYYCARHPIYYTYDDTMDYWGQGTLVTVSS
VL: EIVLTQSPGTLSLSPGERATLSCSASSSVSSGNFHWYQQKPGLAPRLLIYRTSNLASGIPARFSGSGSGTDFTLTISSLEPEDFAVYYCQQWSGYPWTFGGGTKLEIK
binds: all assays above
